According to paper PMC10090947:
Results are given in words; binding and its absence hold for the method and conditions named. Binding seen in cells or lysates may run through a third protein. Some results given as binding are weak or reduced against the parent protein; the word gives no strength.

Protein sequences, listed by entry. Tags and fused reporters are not part of them.
UniProt Q15678: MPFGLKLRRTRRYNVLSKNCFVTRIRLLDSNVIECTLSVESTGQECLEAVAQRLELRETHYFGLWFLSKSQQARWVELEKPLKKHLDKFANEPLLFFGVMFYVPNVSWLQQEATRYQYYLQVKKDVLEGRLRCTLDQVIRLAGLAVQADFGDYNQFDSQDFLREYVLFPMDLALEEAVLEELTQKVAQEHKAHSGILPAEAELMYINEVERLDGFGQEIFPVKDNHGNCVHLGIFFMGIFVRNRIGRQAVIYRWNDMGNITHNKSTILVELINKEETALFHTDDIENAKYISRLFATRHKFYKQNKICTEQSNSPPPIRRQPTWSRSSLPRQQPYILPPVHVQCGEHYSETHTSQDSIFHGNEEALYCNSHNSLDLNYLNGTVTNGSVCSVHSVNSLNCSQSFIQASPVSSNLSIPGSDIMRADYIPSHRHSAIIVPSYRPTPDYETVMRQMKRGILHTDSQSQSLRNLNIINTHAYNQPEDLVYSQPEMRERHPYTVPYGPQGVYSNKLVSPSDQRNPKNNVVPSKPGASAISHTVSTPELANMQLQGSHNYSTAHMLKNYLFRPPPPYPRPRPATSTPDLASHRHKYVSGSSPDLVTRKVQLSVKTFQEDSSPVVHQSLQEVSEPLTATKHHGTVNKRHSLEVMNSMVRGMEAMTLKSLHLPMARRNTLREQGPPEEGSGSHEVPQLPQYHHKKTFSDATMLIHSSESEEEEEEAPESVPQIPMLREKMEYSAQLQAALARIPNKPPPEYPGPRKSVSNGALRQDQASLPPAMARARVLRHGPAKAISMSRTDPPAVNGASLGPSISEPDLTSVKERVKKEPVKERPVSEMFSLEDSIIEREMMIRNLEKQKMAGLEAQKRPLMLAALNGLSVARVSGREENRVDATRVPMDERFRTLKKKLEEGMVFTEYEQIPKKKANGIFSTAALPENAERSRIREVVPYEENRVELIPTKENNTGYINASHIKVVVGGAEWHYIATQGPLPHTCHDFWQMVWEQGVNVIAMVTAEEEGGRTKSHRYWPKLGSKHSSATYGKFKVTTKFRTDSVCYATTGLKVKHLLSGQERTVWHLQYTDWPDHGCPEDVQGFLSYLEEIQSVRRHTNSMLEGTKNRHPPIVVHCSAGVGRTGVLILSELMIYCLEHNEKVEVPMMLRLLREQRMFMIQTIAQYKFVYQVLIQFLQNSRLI

Target: T1, Large tumor suppressor 1 (LATS1), endogenous (human (endogenous in HEK293 and HEK293A)) (UniProt O95835)
T1 sequence: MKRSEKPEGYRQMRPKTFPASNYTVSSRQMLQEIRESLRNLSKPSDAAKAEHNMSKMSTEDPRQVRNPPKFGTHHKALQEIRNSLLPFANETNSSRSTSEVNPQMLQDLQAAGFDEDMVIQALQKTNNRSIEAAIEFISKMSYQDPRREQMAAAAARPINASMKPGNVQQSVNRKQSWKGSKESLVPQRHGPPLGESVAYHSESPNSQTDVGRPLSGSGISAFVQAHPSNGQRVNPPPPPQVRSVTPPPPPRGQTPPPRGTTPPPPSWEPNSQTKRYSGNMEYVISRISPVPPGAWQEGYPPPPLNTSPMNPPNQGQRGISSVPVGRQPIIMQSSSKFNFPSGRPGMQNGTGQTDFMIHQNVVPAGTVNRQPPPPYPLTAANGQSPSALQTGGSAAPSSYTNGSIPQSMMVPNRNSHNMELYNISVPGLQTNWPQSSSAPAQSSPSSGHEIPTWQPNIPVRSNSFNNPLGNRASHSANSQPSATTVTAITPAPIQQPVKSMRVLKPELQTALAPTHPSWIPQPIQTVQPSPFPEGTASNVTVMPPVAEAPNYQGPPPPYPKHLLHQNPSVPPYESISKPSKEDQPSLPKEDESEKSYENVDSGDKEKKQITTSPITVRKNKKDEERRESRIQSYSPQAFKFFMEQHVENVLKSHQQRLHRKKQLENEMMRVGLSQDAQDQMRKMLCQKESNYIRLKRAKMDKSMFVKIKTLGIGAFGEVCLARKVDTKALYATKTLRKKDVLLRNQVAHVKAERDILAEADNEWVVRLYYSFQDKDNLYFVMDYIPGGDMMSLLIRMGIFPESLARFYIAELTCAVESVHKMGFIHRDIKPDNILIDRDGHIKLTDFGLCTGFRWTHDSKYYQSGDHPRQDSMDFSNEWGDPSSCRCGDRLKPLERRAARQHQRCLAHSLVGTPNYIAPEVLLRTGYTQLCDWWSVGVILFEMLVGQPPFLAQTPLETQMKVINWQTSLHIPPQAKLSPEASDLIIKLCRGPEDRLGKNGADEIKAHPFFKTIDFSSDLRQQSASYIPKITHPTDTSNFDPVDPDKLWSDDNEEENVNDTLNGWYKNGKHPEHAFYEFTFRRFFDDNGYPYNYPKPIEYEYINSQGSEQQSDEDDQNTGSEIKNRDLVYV
Experiment: cross-linking; AP-XL-MS: Strep-HA YAP1 and co-purified proteins on beads cross-linked with 1 mM DSS-d0/d12 at 37°C for 30 min; cross-linked peptides identified by MS with xQuest/xProphet (lysines < 30 Å apart)

binding: binds
Substance: nonreceptor tyrosine phosphatase 14 (PTPN14), endogenous (from UniProt Q15678 1-1187) (enzyme)
